Source: PubChem BioAssay AID743454 (Peter MacCallum Cancer Centre, 2014)

- Screen: 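Genes whose loss kills vorinostat-resistant colon cancer cells under vorinostat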 (primary screen)
- Cells: human HCT116-VR colon cancer cells, selected for vorinostat resistance
- Reagent: siRNA pool against human genes, 40 nM siRNA pool
- Duration: vorinostat for 24 h, read-out about 72 h after transfection
- Treatment: vorinostat at 2.5 µM final
- Measurement: 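Two measures, CellTiter-Fluor viability and luminescent caspase 3/7 activity, each as fold change against same-plate mock wells, mean of duplicates, then screen-wide robust z-score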
- Scale: viability robust z-score: higher = more viable cells than screen typical; caspase robust z-score: higher = more caspase 3/7 activity than screen typical
- Active means: 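a knock-down is a hit when classed RV1 or RV2 for lowered viability, or CA1 or CA2 for caspase activation; those lethal without drug were dropped; hits were retested singly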
The whole screen tested about 18,000 reagents; below is an unselected part. 450 of them (2.5%) were called active. 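Single biological run; no consistent viability z cut-off exists, so the class columns, not z-scores, define the calls.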 Reagent sequences are not shown.

After knock-down of P2RX4 (GeneID 5025), the screen gave viability hit class no change; caspase hit class no change; viability robust z-score 1.32; caspase robust z-score 1.4; inactive.
Against SPATA4 (GeneID 132851) the deposit lists viability hit class no change; caspase hit class no change; viability robust z-score 1.36; caspase robust z-score -0.21; inactive.
Against AMBRA1 (GeneID 55626) the deposit lists viability hit class no change; caspase hit class no change; viability robust z-score -0.82; caspase robust z-score 4; inactive.
With knock-down of LYRM4 (GeneID 57128), the screen gave viability hit class no change; caspase hit class no change; viability robust z-score -0.48; caspase robust z-score 0.3; inactive.
Against TRIM16L (GeneID 147166), the values are viability hit class no change; caspase hit class no change; viability robust z-score 0.46; caspase robust z-score 3.97; inactive.
With knock-down of XIRP2 (GeneID 129446), the screen gave viability hit class no change; caspase hit class no change; viability robust z-score 1.28; caspase robust z-score 0.53; inactive.
For TMPRSS15 (GeneID 5651), the values are viability hit class no change; caspase hit class no change; viability robust z-score -0.84; caspase robust z-score -0.45; inactive.
RCOR2 (GeneID 283248) showed viability hit class no change; caspase hit class no change; viability robust z-score 0.15; caspase robust z-score 2.01; inactive.
Knock-down of ORMDL2 (GeneID 29095) came out at: viability hit class no change; caspase hit class no change; viability robust z-score -1.93; caspase robust z-score 1.64; inactive.
Silencing of CYP21A2 (GeneID 1589) gave: viability hit class no change; caspase hit class no change; viability robust z-score 0.2; caspase robust z-score -0.34; inactive.
TAF11 (GeneID 6882) gave viability hit class no change; caspase hit class no change; viability robust z-score 0.29; caspase robust z-score 0.57; inactive.

In a second layout: results already given
| gene symbol | viability hit class | caspase hit class | viability robust z-score | caspase robust z-score | Outcome |
| --- | --- | --- | --- | --- | --- |
| LYRM4 (GeneID 57128) | no change | no change | -0.48 | 0.3 | inactive |
| TRIM16L (GeneID 147166) | no change | no change | 0.46 | 3.97 | inactive |
| XIRP2 (GeneID 129446) | no change | no change | 1.28 | 0.53 | inactive |

Additional reagents follow:
Knock-down of CCDC22 (GeneID 28952) gave: viability hit class no change; caspase hit class no change; viability robust z-score -0.36; caspase robust z-score 0.56; inactive.
TWSG1 (GeneID 57045) showed viability hit class no change; caspase hit class no change; viability robust z-score -0.49; caspase robust z-score -0.55; inactive.
Knock-down of IL12B (GeneID 3593) came out at: viability hit class no change; caspase hit class no change; viability robust z-score 0.18; caspase robust z-score -1.11; inactive.
Against PFDN4 (GeneID 5203), the values are viability hit class no change; caspase hit class no change; viability robust z-score 1.71; caspase robust z-score -0.2; inactive.
After knock-down of GAD1 (GeneID 2571) the results were viability hit class no change; caspase hit class no change; viability robust z-score -0.7; caspase robust z-score 0.29; inactive.
Against OXA1L (GeneID 5018), the values are viability hit class no change; caspase hit class no change; viability robust z-score 0.33; caspase robust z-score -1.23; inactive.
For RIBC1 (GeneID 158787) the deposit lists viability hit class no change; caspase hit class no change; viability robust z-score 1.06; caspase robust z-score -0.16; inactive.
Knock-down of ICAM3 (GeneID 3385) gave: viability hit class no change; caspase hit class no change; viability robust z-score -1.7; caspase robust z-score 2.21; inactive.
RPL18P4 (GeneID 392979) scored viability hit class no change; caspase hit class no change; viability robust z-score -1.7; caspase robust z-score -1.12; inactive.
Against RDX (GeneID 5962) the deposit lists viability hit class no change; caspase hit class no change; viability robust z-score -0.6; caspase robust z-score -1.32; inactive.
